This note sets out measurements from PubChem BioAssay AID1347426 (Functional Genomics Laboratory (NCATS/FGL), 2020).

The campaign covered roughly 31,000 sequences. About 1,400 (4.5%) were called active.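 Rule for the calls: active = median seed-adjusted z-score above 1 or below -1; inactive = the rest.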 The list shows a part of the results.

The nature of the assay: Novel Modifiers of Survival Motor Neuron (SMN) Protein: Gene Identification via Genome-wide siRNA Screen.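 Note: luminescence tracks full-length SMN protein made from the SMN2 reporter.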 Particulars: HEK293T SMN2-luciferase reporter, siRNA knockdown, 72 h; actives lie on both sides. Put shortly:
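HEK293T cells stably expressing an SMN2 splicing/cDNA-luciferase reporter were reverse-transfected with a druggable-genome siRNA library and read by luminescence at 72 hours; hits defined by MAD score above 1.0 or below -1.0.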
In general terms: A reporter such as luciferase makes a cellular process visible.
On to CUAUACUCUUCGCUCCUAUTT against SIGMAR1, for which the median seed-adjusted z-score is active: -1.4.

With ACAUUUAGGUUGUAAACCATT against PLA2G12A, the median seed-adjusted z-score was inactive: 0.139.

Take CCAAGUAUCUGGUGGUGAATT against NDUFV1: the median seed-adjusted z-score was inactive: -0.653.

Turning to GACAUUGACAGGUAUAAGATT against GPD2, the median seed-adjusted z-score was inactive: 0.0606.

GACACGCAAUGGAAGCCUATT against ZDHHC5: the median seed-adjusted z-score was inactive: -0.307.

On to AGUUCUGCCGGGCAUCCUATT against IL27RA, for which the median seed-adjusted z-score is inactive: 0.887.

Turning to GGAUCUUCACCCGAAUACATT against CDH13, the median seed-adjusted z-score is inactive: 0.

In the case of GGUUUGAGGUUGGACUCCATT against ZP3, the median seed-adjusted z-score was inactive: 0.495.

Turning to CCUCAUACCAAGAAGAUAATT against TMPRSS12, the median seed-adjusted z-score was inactive: 0.0961.

GAAUGCAGCAUGUAAAGAATT against GALNT11: the median seed-adjusted z-score was inactive: -0.259.

For the sequence AGCUGGUGGUGGGUCAUGATT against ISG20, the median seed-adjusted z-score is inactive: 0.0209.

CCAACUCAUCGAACACCUUTT against ART5: the median seed-adjusted z-score was inactive: -0.354.

Take GUGCUUUGGUGGUACUAUUTT against ELOVL2: the median seed-adjusted z-score is inactive: -0.456.

With GCCUCUAAGAGCUGAGAGATT against PRSS33, the median seed-adjusted z-score was inactive: -0.588.

Take GGAAGAAGCACAUCUAUAUTT against GOT1L1: the median seed-adjusted z-score is inactive: -0.277.

Turning to GGUUUGGAGCGAGAGUGGATT against ASB10, the median seed-adjusted z-score is inactive: 0.

Regarding GAACGAGGAGAGAAUUAUATT against IFT140, the median seed-adjusted z-score is inactive: -0.0152.

On to GGUGAAUAUUUAUCGUCUATT against CHD1, for which the median seed-adjusted z-score was active: -1.03.

In the case of GGAAUAGACUUAGAUCGAATT against RAD50, the median seed-adjusted z-score is inactive: 0.266.

For CAUCGAAAGGUGUCUGGAATT against POLRMT, the median seed-adjusted z-score is inactive: 0.0812.

With ACAACUACAUGAUCUGGAATT against ECE1, the median seed-adjusted z-score was inactive: -0.344.

As for AGGUAUUUUGGAUCCCGGATT against SEMA3B, the median seed-adjusted z-score is inactive: 0.000251.

Take GGAUUGAGGUGGAGAUGGATT against MCM5: the median seed-adjusted z-score was inactive: 0.126.

Consider GUGUCGUCUUUUUAAUUUUTT against UBE2C, for which the median seed-adjusted z-score was inactive: 0.

Regarding GGAAGUGAAUGAUGAGAAATT against ESX1, the median seed-adjusted z-score is inactive: 0.275.

CGUGCACUUUUAUGCAAAUTT against MAP3K7IP1: the median seed-adjusted z-score is inactive: 0.

As for GCUGCUAUCAGUGAACGGATT against LIN7A, the median seed-adjusted z-score is active: -1.39.

As to CAACGAUGCUAGAAGAAUUTT against PCOLCE2, the median seed-adjusted z-score is active: -1.15.

Consider GAAGAUUGCUCGUGAUGAATT against SLC25A5, for which the median seed-adjusted z-score is inactive: -0.0501.

On to AGCUACAACUUGAGCCUCATT against LDB3, for which the median seed-adjusted z-score was inactive: 0.

As to GGGCACCUACAUCUACUUUTT against CNOT3, the median seed-adjusted z-score was inactive: 0.872.

On to GGAUUUUAUAGGAAGACGATT against TNFRSF19, for which the median seed-adjusted z-score is inactive: -0.672.

As for ACACUAUGCAAAUCCUGGATT against SOLH, the median seed-adjusted z-score was inactive: -0.791.

Regarding GAAACUAGGAAAUUAGUGATT against SIM2, the median seed-adjusted z-score was inactive: -0.19.

As for GAACCUUGGUUUUCAACUUTT against TBC1D5, the median seed-adjusted z-score was inactive: 0.38.

GUUUCACAGUGGAACUUCATT against ITGA5: the median seed-adjusted z-score is inactive: 0.915.

For the sequence GGACAUCCUCGGAAAGUAUTT against ABLIM1, the median seed-adjusted z-score is inactive: 0.115.

As to GGAUCUGACAGUUCCAGAATT against CLDN20, the median seed-adjusted z-score is inactive: -0.00173.

On to AGACCUGCGUGGUGCACUATT against FKBP1A, for which the median seed-adjusted z-score was inactive: 0.113.

As for GGGUCGACCUAUUUCCGAATT against DYSF, the median seed-adjusted z-score is inactive: -0.23.

Take GCUUAAACAUUUAUCACUUTT against GC: the median seed-adjusted z-score was inactive: 0.14.

As for CUAUCUCAGCUACAAGUUUTT against FZD2, the median seed-adjusted z-score was inactive: -0.0134.

As to CACUGAACGAGCUCCCAAATT against THPO, the median seed-adjusted z-score is inactive: -0.0366.

Consider CAAUCUAUGCUGAUUAUAUTT against ZMPSTE24, for which the median seed-adjusted z-score is inactive: -0.633.

Turning to CCGAAGAGUUCAUACCGGATT against ZNF256, the median seed-adjusted z-score was inactive: 0.00739.

With CGAAAGGAGUUUGUCUUCUTT against FOXF1, the median seed-adjusted z-score was inactive: -0.148.

Take CCGGCUUCCUCAUUACCUUTT against SLC2A14: the median seed-adjusted z-score is active: -1.09.

For AGUUCAACGCGGUGCCCUUTT against RXFP3, the median seed-adjusted z-score is inactive: -0.0651.

Take GGAGGGCUGCUAAAAUGAUTT against HNF1B: the median seed-adjusted z-score is inactive: -0.609.

With GGGCUAUCGUAGUUGCACATT against SLC17A5, the median seed-adjusted z-score is inactive: -0.354.

On to AGAAGAUGGUCAGUAUGGATT against ZNF669, for which the median seed-adjusted z-score is inactive: 0.175.

For AGCACAUCGUGUCUAUCUATT against ANKK1, the median seed-adjusted z-score was inactive: -0.288.

CAAGUGCGAUAUCACCUUATT against IL4: the median seed-adjusted z-score is inactive: -0.192.

As to GAGUGGAAAAGACAAGGAUTT against S100P, the median seed-adjusted z-score was inactive: -0.00831.

On to GCAUACAUCUCUCUCUCGATT against ZFP62, for which the median seed-adjusted z-score is inactive: -0.255.

In the case of AGAAGACAACUGCAGAACATT against AGRP, the median seed-adjusted z-score is inactive: 0.206.

Regarding GCAACUCGCAUGCAACUAATT against SALL2, the median seed-adjusted z-score is inactive: 0.504.

In the case of CCUACUAACCAGAUUCAAATT against CLOCK, the median seed-adjusted z-score is inactive: -0.338.

On to GUUACUACCUUUGCCGAAATT against MED12L, for which the median seed-adjusted z-score is inactive: -0.0903.

CAAAGAUCCCUGACAAGCATT against MAPK8: the median seed-adjusted z-score was inactive: 0.316.

As for CAACAUUAGCAAAAUCUUATT against SOX6, the median seed-adjusted z-score is inactive: 0.0135.

Consider GAGGUGAUCUCAAAGCAAUTT against LIAS, for which the median seed-adjusted z-score was inactive: -0.31.

GGAGAUCAUAGCAAACUUUTT against CLDN20: the median seed-adjusted z-score was inactive: -0.00173.

In the case of UUGUGGAUGUUGAACCUAATT against SNRPD1, the median seed-adjusted z-score was active: -2.97.

In the case of GGAAAAAUCUAAGAAGCAATT against ZC3H11A, the median seed-adjusted z-score is inactive: -0.137.

As to CGAUAUCUCUGUGUGCGAATT against COX6B1, the median seed-adjusted z-score was inactive: -0.706.

For GAGUAUACCUCGGAGCUGATT against ISYNA1, the median seed-adjusted z-score is inactive: 0.

With GUCCACAACAGGAAACAUATT against ZBTB48, the median seed-adjusted z-score was inactive: 0.0461.

Take GGAUGGAACUUGGUUAACATT against SP110: the median seed-adjusted z-score is inactive: -0.788.

Turning to GAGCCUCCGUCUCACCUAUTT against VASN, the median seed-adjusted z-score is inactive: 0.213.

GGACCAAAAUGAUACGGGATT against PLA2R1: the median seed-adjusted z-score is inactive: -0.0304.

Consider GUCUGCAAGUGGAUGAUGATT against PSMD9, for which the median seed-adjusted z-score is inactive: 0.266.

As for CGUCAACUCGGAAACGCAATT against ZNF385D, the median seed-adjusted z-score is inactive: -0.338.

Take CAGCUAAGAUUUAUCAGAATT against NR3C2: the median seed-adjusted z-score was inactive: -0.0918.

As for GCUACCUUUUAGUUUACUATT against SNX4, the median seed-adjusted z-score is inactive: -0.144.

Turning to GUCGCUUCCAGAUUGCUCATT against TK1, the median seed-adjusted z-score was inactive: -0.0562.

With AGGUGGAUGUGAACACUGATT against SDF4, the median seed-adjusted z-score was inactive: -0.422.

In the case of GGCCUGACCUCAUUGACUATT against ACTN2, the median seed-adjusted z-score was inactive: 0.165.

In the case of CAUUCCAUCGUGUACCUCATT against FKBP4, the median seed-adjusted z-score was inactive: 0.283.

On to GGAGUGCUACCACAGUAAUTT against LPAL2, for which the median seed-adjusted z-score was inactive: 0.7.

On to GGUUCUUCCCGUUGUCUUUTT against TOMM22, for which the median seed-adjusted z-score was inactive: 0.486.

As for GCCUUGGGUUUGACAAACATT against MTHFS, the median seed-adjusted z-score was inactive: 0.166.

Consider AAAACCCAGUCGUCACCAATT against RNF113B, for which the median seed-adjusted z-score was inactive: -0.228.

With GCAUGAGGAAGGACGGUUUTT against IL16, the median seed-adjusted z-score was inactive: -0.471.

With CCAUGGAUGUUGUGAAACUTT against CSF3R, the median seed-adjusted z-score was inactive: -0.491.

Consider GAGAGAUCUUAGGACUAUUTT against ABCA5, for which the median seed-adjusted z-score was inactive: -0.376.

Regarding CGGGAGAAAAUGACUCAAATT against ACTA2, the median seed-adjusted z-score is inactive: 0.739.

For GUGAGGAUAUGGAACCGCATT against CRYM, the median seed-adjusted z-score is inactive: -0.373.

Take CCACUAUAAAAGUCUUUAATT against PLXNC1: the median seed-adjusted z-score was inactive: -0.0792.

In the case of UCGGAAAUGUUAAACUUUATT against BSPRY, the median seed-adjusted z-score is inactive: -0.399.

Turning to AGGUAAAGCGGUUGAAUGATT against RABEP2, the median seed-adjusted z-score was inactive: -0.0546.

As to CAUACGUACUCCUCCAAAATT against MAP2, the median seed-adjusted z-score was inactive: 0.238.

On to AGAAUAAACUGGCAGCUCATT against GP9, for which the median seed-adjusted z-score was inactive: -0.88.

Regarding CGCACCAUCUACUCCAGUUTT against DLX2, the median seed-adjusted z-score was inactive: -0.527.

Regarding CAACCAAUGUGCGUCUGAATT against CHRNA1, the median seed-adjusted z-score was inactive: -0.32.

For the sequence GUAUCGGUCUUUCAACUAUTT against NMBR, the median seed-adjusted z-score is inactive: 0.32.

For the sequence UCAUCCCACUUUGCCCUGATT against OXER1, the median seed-adjusted z-score is inactive: -0.471.

As to GGGACCAUCCUGUUCUUCATT against KCNK12, the median seed-adjusted z-score is active: 1.04.

With GGUUACUGAUGAACGAGUATT against FAP, the median seed-adjusted z-score is inactive: -0.258.

Take CAUUCUAUGUUAAGUCAAATT against ZNF37A: the median seed-adjusted z-score was inactive: -0.0585.

With AGAUGUUAGGGACACCAGATT against RILP, the median seed-adjusted z-score is inactive: 0.503.

CGAGGAAUGUACUAGCAAUTT against XIRP2: the median seed-adjusted z-score was inactive: -0.404.

On to CAGUGGAAUUGUUGCCUUUTT against SLC39A7, for which the median seed-adjusted z-score is inactive: 0.0554.

As for UGAUGGGCAAGUACACGUATT against KCNIP2, the median seed-adjusted z-score was inactive: 0.415.

For the sequence CCACCUGUAAGAACAGAAATT against SFRS5, the median seed-adjusted z-score was inactive: 0.346.

CUACGGCUUUGGAGAUAUATT against RECQL: the median seed-adjusted z-score was inactive: -0.905.

Turning to GCAGUUCCCUUAGAGCUAGTT against MAP4, the median seed-adjusted z-score is active: 1.67.
